For at least one compound, name, drawing or mass did not settle the structure.
Test system: primary neurons
Experiment: Neuroprotection of primary neurons against other neurotoxic stimuli (Live/Dead assay)
Format: cell-based, rat
Conditions: 100 nM compound added 2 hours before toxic stimuli; survival 24 hours later

**Q.** Which “neuroprotection against staurosporine, thapsigargin, paraquat or hydrogen peroxide” value does the source give for `OC[C@]12CO[C@H](c3ccc(F)cc3)N1[C@H](c1ccc(F)cc1)OC2` [TH-237A, (3R,5S,7as)-(3,5-bis(4-fluorophenyl)tetrahydro-1H-oxazolo[3,4-c]oxazol-7a-yl)methanol] here?
**A.** provided neuroprotection

Reference: patent publication US8318787B2, “Prodrugs of (3,5-bis(4-fluorophenyl)tetrahydro-1H-oxazolo[3,4-C]oxazol-7A-yl)methanol and derivatives thereof” (University of Kansas, priority 2005, dated 2012)
